Data from PubChem BioAssay AID493014 (National Center for Advancing Translational Sciences (NCATS), 2011).
The list shows a part of the results. These are further read-outs of the screen, such as a control signal, another cell line or another target. No call is given for them. Compounds called inactive in the main read-out are mostly missing here. Potencies come from curve fits of mixed quality, noted in brackets.

Assay: qHTS Assay to Find Inhibitors of Chronic Active B-Cell Receptor Signaling
Conditions: ABC-DLBCL IkBa-CBG/CBR reporter, luminescence ratio (green luciferase fused to IkBa over red control in TMD8 lymphoma cells), 4 h
How it was run: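 TMD8 human ABC-DLBCL cells with doxycycline-inducible IκBα–green luciferase fusion and unfused red luciferase, in 0.5% FBS medium; compounds up to 46 uM, 4 h at 37C. Green/red luminescence ratio, filter-overlap corrected, fitted to concentration-response curves.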

[1] = measured here: CBR red luminescence, cell number
[2] = measured here: IkBa-CBG green luminescence

| Structure (SMILES) | AC50 [1] | AC50 [2] |
| --- | --- | --- |
| COC(=O)c1ccccc1NC(=O)Nc1cccnc1 | 10 µM [falling, partial curve, poor fit] |  |
| COc1cc(NC(=O)CNC(c2ccccc2)c2ccccc2)cc(OC)c1OC | 35.5 µM [falling, single point] |  |
| Cc1ccc(C(=O)NCCc2nnc3ccc(SCC(=O)Nc4ccc(C)cc4C)nn23)cc1 | 11.6 µM [rising, partial curve, poor fit] |  |
| CCn1cc(CN2CCc3c([nH]c4ccccc34)C2c2ccc(F)c(OC)c2)c(C)n1 (stereo not given) | 35.5 µM [falling, single point] |  |
| O=C(O)c1ccc(/C=N/NC(=S)NC2CCCCC2)cc1 | 35.5 µM [falling, single point] |  |
| CCOC(=O)C1CCN(C(=O)Cn2cnc3sc(C)c(S(=O)(=O)N4CCOCC4)c3c2=O)CC1 | 3.16 µM [falling, single point] |  |
| COc1ccccc1OCCn1cc(C(=O)c2ccco2)c2ccccc21 | 10 µM [falling, partial curve] |  |
| Cc1cccc(-n2ncc3c(NCc4ccccn4)ncnc32)c1 | 7.94 µM [falling, partial curve, poor fit] |  |
| COc1ccc(OC)c(NC(=O)CSc2nnc(C3CCCCC3)n2N)c1 | 1.64 µM [falling, full curve, poor fit] |  |
| CCc1ccc(-c2nc(SCC(=O)c3c(N)n(C4CC4)c(=O)[nH]c3=O)n[nH]2)cc1 | 6.51 µM [rising, single point] |  |
| O=C(COC(=O)c1ccc(O)cc1)Nc1cccc(S(=O)(=O)N2CCCCC2)c1 | 5.01 µM [falling, partial curve] |  |
| CCOC(=O)C1CCN(C(=O)c2ccc3c(=O)n4nc(Nc5ccccc5)sc4nc3c2)CC1 | 12.6 µM [falling, partial curve, poor fit] |  |
| COc1cc(C(c2c(C)[nH][nH]c2=O)c2c(C)[nH][nH]c2=O)ccc1OS(=O)(=O)c1ccccc1 | 6.51 µM [rising, single point] |  |
| O=C1c2cc(Br)ccc2OC2C=CC=CC12 (stereo not given) | 18.4 µM [rising, partial curve, poor fit] |  |
| O=C(COC(=O)Cc1ccsc1)Nc1ccccc1Cl | 29.1 µM [rising, single point] |  |
| COc1ccc(C(=O)c2cc([N+](=O)[O-])ccc2N2CCCC2)cc1 |  | 18.4 µM [falling, partial curve, poor fit] |
| O=C(Nc1cc(Cl)ccc1O)c1snnc1-c1ccccc1 | 17.8 µM [falling, partial curve] |  |
| Cc1nnnn1/C(=C\c1ccccc1)C(=O)OCC(=O)NC1CCCCC1 | 2.06 µM [falling, full curve] |  |
| CCCNC(=O)c1cc2ccccc2c(=O)o1 | 23.1 µM [falling, single point] |  |
| COc1ccc(Nc2nc(-c3cccnc3)nc3ccccc23)cn1 | 22.4 µM [falling, partial curve, poor fit] |  |
| C=CCn1c(C)nc2c(sc3nc4c(cc32)COC(C)(C)C4)c1=O | 11.2 µM [falling, partial curve, poor fit] |  |

| Structure (SMILES) | AC50 [1] | AC50 [2] |
| --- | --- | --- |
| COc1ccc(NC(=O)c2cc(-c3cc(C)cc(C)c3O)n[nH]2)cc1Cl | 20.6 µM [falling, partial curve] |  |
| COc1cc(/C=N/Nc2nc3ccccc3[nH]2)ccc1O | 16.4 µM [falling, single point] |  |
| Clc1ccc(-n2nnc(-c3cccnc3Cl)n2)cn1 | 1.58 µM [rising, partial curve] |  |
| O=C1CSc2ccc(S(=O)(=O)N3CCN(c4ccccc4F)CC3)cc2N1 | 35.5 µM [falling, single point] |  |
| COc1cc(OC)c2ccc(=O)oc2c1C(CC(=O)N1CCN(c2ccccc2)CC1)c1ccc2c(c1)OCO2 (stereo not given) | 2.24 µM [falling, partial curve] |  |
| COc1cc(/C=C/C(=O)OCC(=O)N2c3ccccc3NC(=O)C2(C)C)cc(OC)c1OC | 2.31 µM [rising, partial curve, poor fit] |  |
| Cc1cc(OC(C)C(=O)NC2CC(C)(C)NC(C)(C)C2)c2c(C)cc(=O)oc2c1 (stereo not given) | 7.08 µM [rising, full curve] |  |
| C#CCOCCOCCOCCNc1nc(N2CCN(C(=O)CCCCCCCCCCNC(=O)Cn3cc(CCCCCN)nn3)CC2)nc(N2CCN(C(=O)CCCCCCCCCCNC(=O)[C@@H]([C@H](C)O)n3cc(C)nn3)CC2)n1 | 18.4 µM [rising, single point] |  |
| Cc1cccc(-n2ncc3c(Nc4c(C)cc(C)cc4C)ncnc32)c1 | 2.82 µM [rising, full curve, poor fit] | 8.91 µM [falling, partial curve, poor fit] |
| Cc1ccc(C2NC(=O)c3c(sc(C)c3C)N2)c(O)c1 (stereo not given) | 29.1 µM [falling, single point] |  |
| COc1ccccc1NC(=S)NC(=O)C(C)C | 10 µM [falling, partial curve, poor fit] |  |
| O=C(Nc1ccc(F)cc1)c1ccc2nc[nH]c2c1 | 11.2 µM [falling, partial curve] |  |
| CCn1c(SCC(=O)c2ccc3c(c2)OCCO3)nnc1-c1ccco1 | 1.64 µM [rising, partial curve] |  |
| CS(=O)(=O)c1cccc(C(=O)NCc2ccc(F)cc2)c1 | 29.1 µM [rising, single point] |  |
| COc1ccc2oc(C(=O)NCC3CCCO3)c(C)c2c1 (stereo not given) | 10 µM [falling, partial curve, poor fit] |  |
| CCN(CC)c1cc2nonc2c2nonc12 | 2.51 µM [rising, full curve, poor fit] |  |
| CCN(CC)c1ccc(NC(=O)CC2Oc3ccccc3NC2=O)c(C)c1 (stereo not given) | 14.6 µM [falling, partial curve, poor fit] |  |
| COc1ccc(NC(=O)/C(Cl)=C(/Cl)S(=O)Cc2ccccc2)cn1 (stereo not given) | 2.59 µM [falling, full curve] | 2.91 µM [rising, full curve, poor fit] |
| CC1CCCCC1NC(=O)Cn1cnc2ccccc2c1=O (stereo not given) | 3.16 µM [rising, single point] |  |
| COc1ccc(OC)c(NC(=O)N2CCCC(C(=O)c3ccccc3OC)C2)c1 (stereo not given) | 6.31 µM [rising, single point] |  |
| Cc1ccc(C(=O)OCC(=O)Nc2cc(F)ccc2F)cc1NC(=O)c1ccco1 | 0.116 µM [falling, full curve, poor fit] |  |

| Structure (SMILES) | AC50 [1] | AC50 [2] |
| --- | --- | --- |
| COC(C(=O)Nc1ccc(S(=O)(=O)Nc2c(C)cccc2C)cc1)c1ccccc1 (stereo not given) | 3.66 µM [rising, partial curve, poor fit] |  |
| Cc1cccn2c(NC(=O)c3ccccc3F)c(-c3ccccc3)nc12 | 35.5 µM [rising, single point] |  |
| Cc1cccc(-c2cc3nc(-c4ccccc4)cc(N4CCC5(CC4)OCCO5)n3n2)c1 |  | 25.9 µM [rising, partial curve, poor fit] |
| COc1ccccc1N=c1scc(-c2ccc3c(c2)NC(=O)CO3)n1CC1CCCO1 (stereo not given) | 0.517 µM [rising, full curve, poor fit] |  |
| Cc1ccsc1C1C(C#N)=C(N)OC2=C1C(=O)CC(C)C2 (stereo not given) |  | 35.5 µM [rising, partial curve, poor fit] |
| COc1ccccc1N1C(=N)S/C(=C\c2ccc(-c3ccccc3C(=O)O)o2)C1=O | 1.84 µM [falling, single point] |  |
| Cc1ccc(N/N=C(\C#N)C(=N)N2CCCCC2)cc1 | 1.26 µM [rising, full curve, poor fit] |  |
| CCCCOC(=O)Nc1ccc(S(=O)(=O)Nc2ccc([N+](=O)[O-])cc2)cc1 | 5.17 µM [falling, full curve] |  |
| COc1ccc(N/C=C/C(=O)C(C)(C)C)cc1 | 3.16 µM [rising, full curve, poor fit] |  |
| CCCCNC(=S)Nc1cccc(C(C)=O)c1 | 29.1 µM [rising, single point] |  |
| CC1CCCN(c2nc(N(C)c3ccccc3)nc(N)c2[N+](=O)[O-])C1 (stereo not given) | 8.91 µM [rising, partial curve, poor fit] |  |
| Cc1ccc(C(=O)Oc2ccc3c(c2)ncn3C)cc1 | 10.3 µM [rising, partial curve, poor fit] |  |
| COC(=O)CNC(=O)Cc1c(F)cccc1Cl | 0.82 µM [rising, full curve, poor fit] |  |
| O=C(COc1ccccc1-c1ccccc1)N/N=C/c1cccc2ccccc12 |  | 3.55 µM [falling, full curve] |
| Cc1ccc(C)c(N2CCN(C(=O)COc3cc(=O)n(C)c4ccccc34)CC2)c1 | 3.16 µM [rising, single point] |  |
| CCCC(=O)Nc1ccc(Cl)c(NC(=S)NC(=O)C(C)C)c1 | 4.47 µM [rising, single point] |  |
| CC(C)C(=O)Nc1ccc(-c2ccc3nncn3n2)cc1 | 11.2 µM [rising, partial curve] |  |
| Cc1c(CN2CCC(CO)(CCOc3ccccc3)CC2)[nH]c2c(Cl)cccc12 | 35.5 µM [falling, single point] |  |
| O=C1Nc2cc(Cl)ccc2Oc2cc(Oc3ccccc3)ccc21 | 8.91 µM [rising, partial curve, poor fit] |  |
| COc1ccc(NC(=O)/C(Cl)=C(/Cl)S(=O)Cc2ccc(Cl)cc2)cn1 (stereo not given) | 6.31 µM [falling, full curve, poor fit] | 7.08 µM [rising, full curve, poor fit] |

Shown tab-delimited: entries from further up.
Structure (SMILES)	AC50 [1]	AC50 [2]
COc1ccc(N/C=C/C(=O)C(C)(C)C)cc1	3.16 µM [rising, full curve, poor fit]	
CCCCNC(=S)Nc1cccc(C(C)=O)c1	29.1 µM [rising, single point]	
CC1CCCN(c2nc(N(C)c3ccccc3)nc(N)c2[N+](=O)[O-])C1 (stereo not given)	8.91 µM [rising, partial curve, poor fit]	
